# Assay results: the supplement of paper PMC3334620
# The full ranking holds about 33,000 sequences; the median of “E-score (-0.5 to 0.5)” is about -0.0014, and the highest 2% start at about 0.25. The list shows a part of the results.
# Target: T1, Cad1 (UniProt P24813)
# T1 sequence: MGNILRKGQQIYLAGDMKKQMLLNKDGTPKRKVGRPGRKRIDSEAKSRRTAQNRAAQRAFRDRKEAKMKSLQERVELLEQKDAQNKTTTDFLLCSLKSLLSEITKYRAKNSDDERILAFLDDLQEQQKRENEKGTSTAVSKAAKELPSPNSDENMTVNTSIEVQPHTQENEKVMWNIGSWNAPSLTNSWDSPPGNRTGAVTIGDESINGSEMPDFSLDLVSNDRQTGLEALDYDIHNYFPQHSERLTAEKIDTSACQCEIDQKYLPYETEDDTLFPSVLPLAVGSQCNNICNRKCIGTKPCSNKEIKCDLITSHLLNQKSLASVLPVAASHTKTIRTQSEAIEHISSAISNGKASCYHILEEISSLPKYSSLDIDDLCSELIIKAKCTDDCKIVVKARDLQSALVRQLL
# Experiment: PBM E-score (8-mer binding enrichment) (E-score (-0.5 to 0.5)); higher = stronger / more preferred TF binding
# Conditions: protein concentration: 100 nM; construct: GST-full length
# Summary of the method: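 For each ungapped eight-base word taken together with its reverse complement, the Universal PBM Analysis Suite assigned an E-score. Binding data came from GST-tagged yeast transcription factors, applied at about 100-200 nM, on universal all-10-mer Agilent arrays made double-stranded by primer extension. Fluorescent anti-GST marked bound protein, and scans were normalised with masliner.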
row,Sequence,PBM E-score
1,AGTGGTAT,-0.0581
2,AATCGCCA,-0.123
3,TCAAGGAA,0.0199
4,AAGAGTGC,-0.176
5,ACAAGTAT,0.0903
6,ACACAACA,-0.00322
7,AATGTTTC,0.0615
8,AATGGATG,0.0553
9,ACAGGTAA,0.0238
10,GTTCTGGA,0.0895
11,CGGTTGAA,0.112
12,AGAGACGC,-0.0121
13,ATCGGAGG,-0.0261
14,ACATGCGG,0.00676
15,AGTGGAGG,-0.138
16,GCTATGCA,-0.0437
17,CTAGAGCA,-0.184
18,ATCTACTC,-0.0691
19,GTACAGGA,0.0846
20,ACTGTAAT,0.111
21,ACGCCGTG,-0.00375
22,ATTCTCAC,0.08
23,GCCGCGAC,0.0507
24,AATCATCG,0.00665
25,GGGCGACA,-0.162

row,Sequence,PBM E-score
1,ATCCCGAG,0.104
2,ATTAGGCC,0.141
3,GAGGAATA,0.172
4,CATGTTAA,0.127
5,ACCAGTCC,-0.248
6,ACTTTTTG,-0.00087
7,GTACTACA,0.0249
8,TAGAATGA,0.0138
9,GACTTATC,-0.0389
10,CACTTGAC,0.0629
11,AGCTACTA,0.0659
12,GCCCCGGC,-0.216
13,CGGTCCAC,-0.111
14,GGGCACGA,-0.0581
15,AAGAGCCG,0.0668
16,GCTTAAGC,0.167
17,CTCGGATA,0.193
18,CGTCAAGA,-0.144
19,TAGACCTA,-0.0838
20,CTTCTTTC,-0.114
21,GCGCGAGA,0.17
22,ATGGGGTC,-0.106
23,TGAGGTAA,-0.0482
24,CGTAAACC,-0.0624
25,ATGATCAT,0.238

row,Sequence,PBM E-score
1,CGAGGGCC,-0.0726
2,AAAGGAGG,-0.268
3,CAATAATC,0.186
4,GAAGTCTC,0.077
5,CGGAAACA,-0.0499
6,GATACACC,0.257
7,AGGCCGGA,-0.162
8,CATAGACG,0.0683
9,ACGAACGT,0.0788
10,CGCGACAA,0.24
11,AGCCACAT,0.104
12,AACAGTGT,-0.00803
13,CACAAGCC,-0.109
14,CGACGATC,0.153
15,CCCATTTA,-0.0471
16,CTCACTTC,-0.0448
17,GATTTGGC,0.0193
18,ATGCCCGA,-0.0531
19,AGCATAGA,0.0341
20,ACGTCACT,0.15
21,CCACATAA,0.0159
22,CGGCGCAA,0.0297
23,TAATATTA,0.424
24,CCTCTCGC,-0.188
25,ATCGCAAT,0.167

row,Sequence,PBM E-score
1,AATATAAA,0.251
2,AGTCTAGC,-0.184
3,GACATCCC,0.138
4,ATATTACA,0.347
5,CTTGGTAA,0.0981
6,CGGTTGGC,0.0738
7,GGCAGAAC,-0.0675
8,GAATCGTC,0.0319
9,CTCAACAA,0.0921
10,ATTCGAGG,-0.0551
11,CCAGAGGG,-0.25
12,ATCTTTGG,-0.159
13,GATCCTAA,-0.048
14,AGCCGTCA,0.035
15,CGTACCAG,-0.0767
16,TTGGACAA,0.0833
17,ATGTACAT,0.248
18,AGATCGTA,-0.0956
19,ATGGTAAT,0.119
20,AACCATGG,0.0546
21,AGCCACGG,-0.149
22,CTAGGTGA,-0.148
23,ACGCACGC,0.135
24,CGTAGCCA,-0.0711
25,CAGTGCAG,-0.0154

row,Sequence,PBM E-score
1,ACTGAAGG,-0.0483
2,AAACCTGA,-0.019
3,GCGCTTGA,0.185
4,GCAGACAA,0.0665
5,AGCACGCC,-0.0364
6,AGGAGGTA,-0.166
7,CAGACTTC,-0.0781
8,AGACCCAC,-0.0306
9,ATTTTAGA,-0.101
10,GGTCCAAA,-0.0949
11,GGCCCGAA,0.15
12,ATGGGTTA,0.0421
13,CCGCTTCA,0.0411
14,AGAGAGAT,-0.00189
15,AAAGCCAA,-0.0764
16,CCTGTAAA,-0.0844
17,CCCTGAAA,-0.0497
18,AGATATGG,0.0179
19,GATCGGGC,0.00085
20,AGTTTCCC,0.0233
21,CCACGAGC,0.0134
22,ACTTTTAA,0.00326
23,CGCGAAGA,0.273
24,ACTGCGGA,-0.0651
25,ACCGCGCT,0.085

row,Sequence,PBM E-score
1,ACTCTCGC,-0.0414
2,AGGAACGA,-0.168
3,CCGACTGC,-0.135
4,ACTCAGCT,-0.0714
5,ATCTGCAA,-0.0858
6,ACTGCGCA,0.0568
7,AATTACTG,0.14
8,ACCCCATC,-0.0268
9,CATGGACC,-0.126
10,ACAGTTGA,-0.0318
11,AGGTAAAG,0.267
12,ATCCGACC,-0.0165
13,ATCAGTAG,0.0136
14,AGTTTATA,0.232
15,CCCATAAC,-0.152
16,AGCTTCCG,0.185
17,CCATGTCG,0.0544
18,CGAATTAA,0.132
19,AAACGTGC,-0.16
20,ATGGCGTC,0.0759
21,ACTTGCGA,0.126
22,AAGTATAT,0.00502
23,ACAAGCCC,-0.145
24,CCGGACCA,-0.102
25,AGCACTGA,0.0602

row,Sequence,PBM E-score
1,ACGTTATC,-0.0185
2,GCCACCGA,-0.127
3,AGACCGAC,-0.0885
4,AACAGCCT,-0.164
5,ATCCTGAC,0.0925
6,CGAAATCC,0.0502
7,TGGAGTAA,0.149
8,CCCAGGGA,-0.44
9,TCTTGCAA,0.0683
10,ATATTTTA,0.173
11,CGAGTATA,0.138
12,ACATATGC,-0.245
13,CGCTAACA,0.0296
14,GTTGCGCA,0.0816
15,GTGTCCGA,0.0562
16,AAGACCTT,-0.0766
17,ATTCCGTC,-0.0303
18,TGTCCAAA,0.0578
19,AAGCCTAC,0.0195
20,AGGAGGAT,-0.0825
21,CACCGGGC,-0.27
22,GGGGGTGA,-0.29
